Drawing on PMC11616693, this text covers binding for one substance.

By UniProt entry, the sequences of proteins in these tests, tags left out. Where a name states a change or a piece, a line headed by the entry shows the natural chain unless it says otherwise.
UniProt P06756: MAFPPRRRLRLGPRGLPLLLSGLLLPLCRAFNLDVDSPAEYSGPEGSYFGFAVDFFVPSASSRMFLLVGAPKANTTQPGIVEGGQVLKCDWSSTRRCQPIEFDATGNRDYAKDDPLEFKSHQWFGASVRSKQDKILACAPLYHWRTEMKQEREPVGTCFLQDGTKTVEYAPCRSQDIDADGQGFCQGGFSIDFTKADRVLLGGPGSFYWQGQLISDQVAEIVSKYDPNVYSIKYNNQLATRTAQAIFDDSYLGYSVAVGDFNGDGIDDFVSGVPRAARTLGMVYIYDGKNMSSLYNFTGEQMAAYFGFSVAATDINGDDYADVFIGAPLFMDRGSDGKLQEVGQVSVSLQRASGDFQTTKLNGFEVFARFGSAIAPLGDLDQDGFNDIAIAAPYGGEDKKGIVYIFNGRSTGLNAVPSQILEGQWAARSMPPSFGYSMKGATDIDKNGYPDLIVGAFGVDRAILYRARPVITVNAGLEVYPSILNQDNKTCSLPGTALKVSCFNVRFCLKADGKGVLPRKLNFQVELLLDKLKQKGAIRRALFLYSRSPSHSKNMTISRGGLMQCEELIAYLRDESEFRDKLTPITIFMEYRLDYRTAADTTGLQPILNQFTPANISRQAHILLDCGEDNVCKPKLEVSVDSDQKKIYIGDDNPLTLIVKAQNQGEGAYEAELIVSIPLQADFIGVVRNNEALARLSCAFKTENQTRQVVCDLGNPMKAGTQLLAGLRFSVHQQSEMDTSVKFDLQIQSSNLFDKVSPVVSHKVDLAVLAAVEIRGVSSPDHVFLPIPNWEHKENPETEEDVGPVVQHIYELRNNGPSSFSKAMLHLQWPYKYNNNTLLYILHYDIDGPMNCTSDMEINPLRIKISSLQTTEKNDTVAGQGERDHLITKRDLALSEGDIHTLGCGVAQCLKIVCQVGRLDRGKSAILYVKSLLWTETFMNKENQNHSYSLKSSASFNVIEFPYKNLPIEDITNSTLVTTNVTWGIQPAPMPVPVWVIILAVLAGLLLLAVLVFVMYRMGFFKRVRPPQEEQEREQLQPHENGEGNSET

For the test, the target named is αVβ6 integrin (human (endogenous in BT474 and HER2-18)) (UniProt P06756). Briefly: isolation of integrin adhesion complexes (IACs) with immunoblotting; IACs isolated from BT474 cells on LAP, FN and Coll-I after DTBP cross-linking and removal of cell bodies; immunoblot. (A western blot detects proteins with antibodies after separation by electrophoresis.)

Results are given in words; binding and its absence hold for the method and conditions named. Binding calls can cover weak binding; strength is not graded here.

For vinculin (from UniProt P18206-2), the binding result is “binds”.
